Patent US20200033364A1
No constants are given. Whether binding was seen depends on the method and setting. In cells and extracts the contact can be indirect. Some results given as binding are weak or reduced against the parent protein; the word gives no strength.

Target: Protein A (UniProt P38507)
Test: immunocapture from human serum on Protein A magnetic beads, then on-bead trypsin digestion and UPLC-MS/MS

binding	Binder
binds	eculizumab (antibody, human IgG2, kappa) heavy: QVQLVQSGAEVKKPGASVKVSCKASGYIFSNYWIQWVRQAPGQGLEWMGEILPGSGSTEYTENFKDRVTMTRDTSTSTVYMELSSLRSEDTAVYYCARYFFGSSPNWYFDVWGQGTLVTVSSASTKGPSVFPLAPCSRSTSESTAALGCLVKDYFPEPVTVSWNSGALTSGVHTFPAVLQSSGLYSLSSVVTVPSSNFGTQTYTCNVDHKPSNTKVDKTVERKCCVECPPCPAPPVAGPSVFLFPPKPKDTLMISRTPEVTCVVVDVSQEDPEVQFNWYVDGVEVHNAKTKPREEQFNSTYRVVSVLTVLHQDWLNGKEYKCKVSNKGLPSSIEKTISKAKGQPREPQVYTLPPSQEEMTKNQVSLTCLVKGFYPSDIAVEWESNGQPENNYKTTPPVLDSDGSFFLYSRLTVDKSRWQEGNVFSCSVMHEALHNHYTQKSLSLSLGK light: DIQMTQSPSSLSASVGDRVTITCGASENIYGALNWYQQKPGKAPKLLIYGATNLADGVPSRFSGSGSGTDFTLTISSLQPEDFATYYCQNVLNTPLTFGQGTKVEIKRTVAAPSVFIFPPSDEQLKSGTASVVCLLNNFYPREAKVQWKVDNALQSGNSQESVTEQDSKDSTYSLSSTLTLSKADYEKHKVYACEVTHQGLSSPVTKSFNRGEC
binds	ALXN1210 (antibody, human IgG2, kappa) heavy: QVQLVQSGAEVKKPGASVKVSCKASGHIFSNYWIQWVRQAPGQGLEWMGEILPGSGHTEYTENFKDRVTMTRDTSTSTVYMELSSLRSEDTAVYYCARYFFGSSPNWYFDVWGQGTLVTVSSASTKGPSVFPLAPCSRSTSESTAALGCLVKDYFPEPVTVSWNSGALTSGVHTFPAVLQSSGLYSLSSVVTVPSSNFGTQTYTCNVDHKPSNTKVDKTVERKCCVECPPCPAPPVAGPSVFLFPPKPKDTLMISRTPEVTCVVVDVSQEDPEVQFNWYVDGVEVHNAKTKPREEQFNSTYRVVSVLTVLHQDWLNGKEYKCKVSNKGLPSSIEKTISKAKGQPREPQVYTLPPSQEEMTKNQVSLTCLVKGFYPSDIAVEWESNGQPENNYKTTPPVLDSDGSFFLYSRLTVDKSRWQEGNVFSCSVLHEALHSHYTQKSLSLSLGK light: DIQMTQSPSSLSASVGDRVTITCGASENIYGALNWYQQKPGKAPKLLIYGATNLADGVPSRFSGSGSGTDFTLTISSLQPEDFATYYCQNVLNTPLTFGQGTKVEIKRTVAAPSVFIFPPSDEQLKSGTASVVCLLNNFYPREAKVQWKVDNALQSGNSQESVTEQDSKDSTYSLSSTLTLSKADYEKHKVYACEVTHQGLSSPVTKSFNRGEC
